These are yes or no findings as the source states them, for the method shown. In cells and extracts the contact can be indirect. Some entries that bind do so weakly or less than the wild type.
Key:
[1] = molecular target: ATM protein kinase (human (endogenous in G361)) (UniProt Q13315); assay: co-IP; ATM immunoprecipitated from G361 nuclear extracts with anti-ATM monoclonal SYR 10G3/1 on protein A-Sepharose, blot for PARP-1; cells untreated or treated with 10 Gy IR or 2 mM MNU for 30 min; HT144 (ATM deficient) as negative control
[2] = molecular target: ATM protein kinase (human (endogenous in G361)) (UniProt Q13315); assay: co-IP; co-immunoprecipitation in the presence of ethidium bromide (not shown)

By UniProt entry, the sequences of proteins in these tests, tags left out.
UniProt Q13315: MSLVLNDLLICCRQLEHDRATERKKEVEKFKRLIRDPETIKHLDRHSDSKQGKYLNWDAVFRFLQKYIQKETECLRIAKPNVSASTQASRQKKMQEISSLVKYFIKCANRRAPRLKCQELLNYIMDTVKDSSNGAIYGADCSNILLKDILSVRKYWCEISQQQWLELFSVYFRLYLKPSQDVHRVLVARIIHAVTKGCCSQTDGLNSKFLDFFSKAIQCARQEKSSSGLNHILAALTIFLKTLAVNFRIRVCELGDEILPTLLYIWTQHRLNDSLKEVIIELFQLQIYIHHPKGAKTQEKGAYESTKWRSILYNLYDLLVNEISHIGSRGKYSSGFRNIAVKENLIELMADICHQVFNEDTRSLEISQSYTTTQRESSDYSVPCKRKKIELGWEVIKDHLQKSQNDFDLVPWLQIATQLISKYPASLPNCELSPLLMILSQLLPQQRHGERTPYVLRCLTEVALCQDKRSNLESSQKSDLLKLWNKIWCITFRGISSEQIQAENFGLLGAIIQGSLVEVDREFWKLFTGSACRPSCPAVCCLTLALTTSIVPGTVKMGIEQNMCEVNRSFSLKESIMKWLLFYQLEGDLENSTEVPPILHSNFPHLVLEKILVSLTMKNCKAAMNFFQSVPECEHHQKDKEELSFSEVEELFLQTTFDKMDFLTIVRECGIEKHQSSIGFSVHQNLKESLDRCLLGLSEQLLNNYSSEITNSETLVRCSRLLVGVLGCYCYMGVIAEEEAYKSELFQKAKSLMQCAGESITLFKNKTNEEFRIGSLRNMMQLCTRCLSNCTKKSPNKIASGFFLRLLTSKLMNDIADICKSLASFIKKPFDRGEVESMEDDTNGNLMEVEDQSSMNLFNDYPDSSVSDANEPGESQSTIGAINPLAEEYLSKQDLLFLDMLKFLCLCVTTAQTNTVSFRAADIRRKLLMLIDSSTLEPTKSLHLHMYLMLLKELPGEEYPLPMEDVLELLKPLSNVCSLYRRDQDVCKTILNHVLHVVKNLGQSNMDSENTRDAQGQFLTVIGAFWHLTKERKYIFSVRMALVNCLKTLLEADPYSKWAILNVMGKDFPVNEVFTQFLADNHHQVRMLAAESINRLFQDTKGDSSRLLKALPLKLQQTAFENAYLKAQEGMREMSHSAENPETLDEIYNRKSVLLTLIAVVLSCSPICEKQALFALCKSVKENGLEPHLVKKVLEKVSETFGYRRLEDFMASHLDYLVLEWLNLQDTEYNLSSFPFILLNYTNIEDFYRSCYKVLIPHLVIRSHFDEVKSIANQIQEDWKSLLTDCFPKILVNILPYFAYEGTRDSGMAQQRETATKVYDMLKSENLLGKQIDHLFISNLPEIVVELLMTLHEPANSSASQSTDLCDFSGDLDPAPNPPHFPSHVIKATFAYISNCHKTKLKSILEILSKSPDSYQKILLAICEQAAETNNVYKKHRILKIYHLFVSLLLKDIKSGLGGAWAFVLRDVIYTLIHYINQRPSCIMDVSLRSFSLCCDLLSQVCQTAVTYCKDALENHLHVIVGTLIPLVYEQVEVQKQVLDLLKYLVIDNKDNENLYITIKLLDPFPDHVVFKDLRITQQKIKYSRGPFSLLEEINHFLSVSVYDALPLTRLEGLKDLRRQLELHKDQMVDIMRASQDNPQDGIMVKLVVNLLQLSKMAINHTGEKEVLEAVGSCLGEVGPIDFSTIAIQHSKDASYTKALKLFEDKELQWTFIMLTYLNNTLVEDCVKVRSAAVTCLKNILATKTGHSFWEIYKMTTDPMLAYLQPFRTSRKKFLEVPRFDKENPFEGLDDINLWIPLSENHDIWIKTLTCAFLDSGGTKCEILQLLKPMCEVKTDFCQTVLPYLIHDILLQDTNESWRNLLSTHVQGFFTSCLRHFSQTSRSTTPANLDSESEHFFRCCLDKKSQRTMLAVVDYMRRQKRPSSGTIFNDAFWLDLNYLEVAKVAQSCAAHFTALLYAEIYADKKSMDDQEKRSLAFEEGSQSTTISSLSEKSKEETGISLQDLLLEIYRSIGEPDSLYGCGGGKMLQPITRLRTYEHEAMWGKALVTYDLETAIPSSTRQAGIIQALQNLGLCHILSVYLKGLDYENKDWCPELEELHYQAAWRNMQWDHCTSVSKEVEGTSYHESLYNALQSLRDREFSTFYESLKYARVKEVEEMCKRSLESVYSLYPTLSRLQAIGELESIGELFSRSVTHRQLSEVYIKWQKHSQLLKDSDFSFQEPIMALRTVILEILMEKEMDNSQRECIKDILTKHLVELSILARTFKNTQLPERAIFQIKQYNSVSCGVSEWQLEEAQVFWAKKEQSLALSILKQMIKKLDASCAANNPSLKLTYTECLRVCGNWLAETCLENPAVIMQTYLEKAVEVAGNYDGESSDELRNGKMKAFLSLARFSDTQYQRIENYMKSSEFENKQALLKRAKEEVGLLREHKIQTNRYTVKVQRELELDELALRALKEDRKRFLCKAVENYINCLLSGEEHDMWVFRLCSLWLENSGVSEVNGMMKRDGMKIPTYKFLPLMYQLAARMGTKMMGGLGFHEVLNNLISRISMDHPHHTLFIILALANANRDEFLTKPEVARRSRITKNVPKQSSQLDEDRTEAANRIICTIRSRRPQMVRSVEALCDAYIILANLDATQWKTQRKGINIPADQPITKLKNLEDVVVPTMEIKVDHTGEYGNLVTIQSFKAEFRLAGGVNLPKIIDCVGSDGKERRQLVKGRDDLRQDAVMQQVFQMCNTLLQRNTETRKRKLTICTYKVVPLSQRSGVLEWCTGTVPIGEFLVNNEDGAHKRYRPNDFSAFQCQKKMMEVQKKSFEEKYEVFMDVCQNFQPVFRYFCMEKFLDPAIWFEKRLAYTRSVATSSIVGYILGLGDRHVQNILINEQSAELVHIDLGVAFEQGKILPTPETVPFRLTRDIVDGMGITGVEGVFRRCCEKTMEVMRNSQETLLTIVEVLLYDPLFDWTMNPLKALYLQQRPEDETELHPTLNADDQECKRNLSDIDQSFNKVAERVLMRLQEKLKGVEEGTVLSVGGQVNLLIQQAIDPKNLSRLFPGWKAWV
UniProt P09874: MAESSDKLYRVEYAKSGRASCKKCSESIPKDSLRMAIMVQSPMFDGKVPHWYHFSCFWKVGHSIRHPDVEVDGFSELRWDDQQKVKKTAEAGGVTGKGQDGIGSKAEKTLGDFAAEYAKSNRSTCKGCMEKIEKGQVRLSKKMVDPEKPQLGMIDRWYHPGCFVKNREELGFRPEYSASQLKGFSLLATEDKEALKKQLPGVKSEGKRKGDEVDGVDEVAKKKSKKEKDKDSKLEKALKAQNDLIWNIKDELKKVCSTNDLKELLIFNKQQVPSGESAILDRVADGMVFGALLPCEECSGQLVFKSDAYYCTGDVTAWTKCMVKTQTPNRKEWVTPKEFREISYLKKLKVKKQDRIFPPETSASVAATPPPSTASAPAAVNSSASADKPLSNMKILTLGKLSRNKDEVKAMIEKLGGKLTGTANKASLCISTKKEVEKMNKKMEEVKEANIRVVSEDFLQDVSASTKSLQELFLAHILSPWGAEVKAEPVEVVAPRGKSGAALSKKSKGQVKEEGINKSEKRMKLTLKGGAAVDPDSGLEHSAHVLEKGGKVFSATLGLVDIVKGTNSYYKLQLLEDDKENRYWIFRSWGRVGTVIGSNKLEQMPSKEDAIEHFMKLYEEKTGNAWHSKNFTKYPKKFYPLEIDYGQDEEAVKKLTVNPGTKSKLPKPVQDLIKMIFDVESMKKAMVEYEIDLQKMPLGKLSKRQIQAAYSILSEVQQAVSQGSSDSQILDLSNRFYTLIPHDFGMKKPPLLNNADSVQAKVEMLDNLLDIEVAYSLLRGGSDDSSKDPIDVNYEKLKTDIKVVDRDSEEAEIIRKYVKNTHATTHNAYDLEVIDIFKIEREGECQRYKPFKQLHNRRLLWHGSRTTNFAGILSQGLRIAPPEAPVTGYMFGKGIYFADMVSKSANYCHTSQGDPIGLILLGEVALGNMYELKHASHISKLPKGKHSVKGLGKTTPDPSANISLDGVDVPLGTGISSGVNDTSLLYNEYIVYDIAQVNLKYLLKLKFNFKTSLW

Poly(ADP-ribose) polymerase (PARP-1) (from UniProt P09874 1-1014)
binding [1]: binds | binding [2]: binds

From paper PMC1868035
